# Where “and” joins values, the source holds several entries; their conditions need not be identical. Identical values can stand only once. In all, about 410,000 compounds went through this assay and about 18,000 (4.4%) were called active. The inconclusive results got no clear call from the source; some entries with a clear call stand among them for comparison. Rule as the data show it: active = activity change below about -60%; inconclusive = no clear call, values can overlap the other calls; inactive = above about -39%.
# Assay: qHTS Assay for inhibitors of the human cytomegalovirus (HCMV)
# Details: HFF cells, HCMV-luciferase reporter, 72 h; at 57.5 µM; stronger effect = lower value
# Outline: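 Screen run at 2 compound doses on HFFs infected with reporter HCMV, MOI 1 PFU/cell. Luciferase activity from cell lysates at 72 h post infection gave inhibition relative to buffer-only and Salinomycin wells.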
# % is scaled to controls: 0 for no effect and ±100 for the full control effect.
row,Structure (SMILES),"activity change, negative = inhibition"
1,N#C/C=C1\n2c(nc3ccccc32)OC12CCCCC2,inconclusive: -56.6%
2,Cc1cc(C)nc(N(C#N)Cc2ccc(Cl)cc2)n1,active: -61.8%
3,CCOC(=O)C(C)NC(=O)C1CCN(c2ncnc3c2nc2n3CCCCC2)CC1 (configuration not stated),active: -84.5%
4,CCCCc1nnc(SCC(=O)NC2CCCCC2)n1C,inactive: 5.94%
5,COc1cccc(/C=C2\SC(=O)N(CCC(=O)N3CCC(C(=O)O)CC3)C2=O)c1,inactive: -14%
6,Cc1ccc(N2C(=O)C3C(C2=O)N2C(c4cccs4)C4C(=O)N(c5ccc(C)cc5)C(=O)C4N2C3c2cccs2)cc1 (configuration not stated),inactive: -4.44%
7,Cc1cc(C(C)c2ccccc2)c(O)c(CN2CCOCC2)c1C (configuration not stated),inactive: -3.48%
8,CCc1ccccc1NC(=O)CCN1C(=O)c2ccccc2C1=O,inactive: -15.5%
9,CCOC(=O)c1cn[nH]c1NC(=S)Nc1ccc(OC)cc1,inconclusive: -59.9%
10,Cc1ccc(Cn2nnnc2CN2CCC(O)(c3ccccc3F)CC2)cc1,inconclusive: -47.8%
11,O=C(Nc1cccc(Cl)c1N1CCOCC1)c1ccc([N+](=O)[O-])o1,inconclusive: -48.1%
12,Cc1c(Cc2ccccc2)c(=O)oc2c(C)c(OCC(=O)Nc3ccc(C#N)cc3)ccc12,inconclusive: -46.5%
13,COc1ccc(-c2c3c(nc4sc5c(=O)[nH]c(C)nc5c24)CCC3)cc1,active: -88.4%
14,CCn1c(=O)c2sccc2n2c(CCC(=O)N3CCN(c4ccc(C(C)=O)cc4)CC3)nnc12,inactive: 13%
15,CN(C)c1cc[n+](/C(C(=S)Nc2ccc(SC(F)F)cc2)=C(/[O-])c2ccccc2)cc1,inconclusive: -46.4%
16,Cc1ccccc1C(=O)N(Cc1nc(-c2ccc(Cl)cc2)no1)C(C)C,inconclusive: -46.4%
17,CC(=O)NC12CC3CC(C1)CC(C(=O)N(C)CC(=O)Nc1ccccc1Cl)(C3)C2,inactive: -35.4%
18,O=C(NC1CCCc2ccccc21)c1ccccc1 (configuration not stated),inconclusive: -54%
19,CC(NC(=O)NC(=O)c1ccc(Cl)cc1)c1ccccc1 (configuration not stated),inconclusive: -40.1%
20,COc1ccc(S(=O)(=O)N2CCOCC2)cc1NC(=O)CSc1ncccn1,inactive: 42.4%
21,C=CCN(Cc1ccc(OC)c(OC)c1)C(=O)c1cc2cc(F)ccc2[nH]1,inactive: 74.6%
22,Cc1ccc(OCc2n[nH]c(=S)n2Cc2ccccc2)cc1,inconclusive: -42.8%

row,Structure (SMILES),"activity change, negative = inhibition"
1,Cc1ccccc1Cn1c2ccccc2c2cnn(CC(=O)NCCc3ccccc3)c(=O)c21,active: -96.3%
2,ClC(Cl)c1nnc(-c2ccccc2)c(-c2c[nH]c3ccccc23)n1,active: -86.5%
3,COC(=O)CC(NC(=S)N1CC2C[C@@H](C1)Cn1c2cccc1=O)C(=O)OC (some centres not stated),inconclusive: -50.1%
4,Cc1ccc(CN(Cc2ccc(C)o2)C(=S)NCC(=O)O)cc1,inconclusive: -55.4%
5,COc1ccccc1NS(=O)(=O)c1cc(NC(=O)C(C)NC(N)=O)ccc1N1CCCC1 (configuration not stated),inactive: 0%
6,COc1cccc(/C=N/NC(=O)CNC(=O)/C=C\c2ccccc2)c1O,inactive: -20.9%
7,CS(=O)(=O)N(CCc1ccccc1)CC(=O)NCC1CCCO1 (configuration not stated),inconclusive: -40.4%
8,CCc1ccccc1NC(=O)c1cc(-c2ccco2)on1,inconclusive: -47.5%
9,COC(=O)c1ccc(CSc2nc3c(cnn3-c3ccc(C)cc3)c(=O)[nH]2)o1,inconclusive: -50.9%
10,CCCCn1c(N)c(C(=O)NCc2cccs2)c2nc3ccccc3nc21,inconclusive: -42.2%
11,CCC[C@@H]1CCCO[C@@](C(=O)NCc2cc(C)n(C)n2)(C(F)(F)F)C1,inactive: -1.82%
12,COCCCN1C(=O)c2ccc(C(=O)N3CCN(c4ccccc4OC)CC3)cc2C1=O,inconclusive: -42.1%
13,COc1ccccc1NC(=S)N1CCC(c2nc3ccccc3o2)CC1,inconclusive: -58.2%
14,Cc1cccc(CN2CCN(C(=S)Nc3ccccc3)CC2)c1,inconclusive: -42.3%
15,Cc1ccc(C(=O)Nc2ccc(OCc3cc(=O)n4c(C)csc4n3)cc2)cc1,inactive: 13.5%
16,COc1ccc(CNC(=O)c2cc(SC)ccc2Cl)cc1OC,inconclusive: -43.2%
17,Cc1cccc(-c2oc3ccc(-c4ccc5c(c4)OCO5)cc3c2C(=O)OCc2ccc(O)cc2)c1,inconclusive: -43.4%
18,CCCCc1nc(NCc2ccccc2)c(C#N)c2c1CCCC2,inconclusive: -43.9%
19,O=C(N=C1c2ccccc2CN1c1ccc(F)c(Cl)c1)c1cccnc1Cl,inconclusive: -49.3%
20,Cc1ccc(S(=O)(=O)N2CCN(C(=O)C(Cc3ccccc3)NC(=O)c3ccccc3)CC2)cc1 (configuration not stated),inactive: -22.7%
21,CCCc1cc(=O)oc2cc(OCc3ccc(C(=O)O)cc3)ccc12,inactive: -6.69%
22,Cc1ccc(-n2nc(C)c(NC(=O)CCl)c2C)cc1C,active: -103%

row,Structure (SMILES),"activity change, negative = inhibition"
1,CC(C)c1cccc(C(C)C)c1NC(=O)CCl,inconclusive: -57.8%
2,CC(C)C[C@H]1CNC(=S)N1C[C@H]1CCCN1C[C@H](Cc1ccc(O)cc1)N1C[C@H](Cc2ccc(O)cc2)N(CC2CCCCC2)C1=S,inconclusive: -55.5%
3,COc1cccc(OCC(O)CN2CCC(CN3C(=O)c4cccc5cccc(c45)C3=O)CC2)c1 (configuration not stated),active: -65.3%
4,O=C(NCCc1ccccn1)c1ccc(OC2CCN(CCc3ccccc3)CC2)cc1,inactive: 7.47%
5,Fc1cccc(Cl)c1CSc1nnc(-c2ccncc2)o1,inconclusive: -59.2%
6,O=C(N/N=C/c1c(O)ccc2ccccc12)c1cccnc1,active: -97.8%
7,CCCn1nnnc1NCc1ccc(F)cc1,inconclusive: -49.6%
8,CC(=O)c1cccc(-c2ccnc3c2CC(C(=O)Nc2ccc(C(C)C)cc2)O3)c1 (configuration not stated),active: -82.3%
9,COCCCNC(=O)c1c(NC(=O)c2ccco2)n(Cc2ccccc2)c2nc3ccccc3nc12,inconclusive: -57.3%
10,Cc1cc(Br)c(S(=O)(=O)NCc2ccncc2)cc1C,active: -81.9%
11,OC(c1cccc(CN2CCCCC2)c1)c1ncc(-c2cccc(C(F)(F)F)c2)[nH]1 (configuration not stated),inactive: 35.7%
12,COCc1cc([C@@H]2C[C@H]3CN(c4ccccc4)C(=O)[C@]34CCCN24)ccc1OC,active: -94%
13,COc1cccc(CNCC2CCCO2)c1 (configuration not stated),inactive: 13.5%
14,O=C1/C(=C/c2ccco2)Oc2c1ccc(O)c2CN1CCCCC1,inconclusive: -43.2%
15,COc1ccc(CN2CCN(CC=C(C)C)C(CCO)C2)cc1Cn1cccn1 (configuration not stated),inconclusive: -49.7%
16,CC(=O)c1ccc(N2CCN(CC(O)COC(c3ccccc3)c3ccccc3C)CC2)cc1 (configuration not stated),inactive: 30.5%
17,CCOc1ccc(N2C(=O)Nc3ccc(Br)cc3C2(O)C(=O)NC(C)C)cc1 (configuration not stated),inconclusive: -48.9%
18,Cc1ccccc1CN1C(=O)c2ccccc2Sc2ccc(C(=O)N3CCCC3)cc21,inconclusive: -47.9%
19,O=C(NCc1cccs1)c1nc2c(nnn2Cc2ccc(F)cc2)c(=O)[nH]1,inconclusive: -56.4%
20,CC(C)CNS(=O)(=O)c1ccc(CCC(=O)NCc2ccncc2)cc1,inactive: -5.39%
21,COc1cc(OC)c(C(=O)OC(C)C(=O)Nc2cc(C(F)(F)F)ccc2Cl)cc1OC (configuration not stated),inconclusive: -41.6%
22,CCCCn1nc(NC(=O)c2cccc(Cl)c2)c2cc3ccccc3nc21,inactive: 5.29%

row,Structure (SMILES),"activity change, negative = inhibition"
1,Cc1ccc(C(=O)c2cnc3cc4c(cc3c2S(=O)(=O)c2ccccc2)OCCO4)cc1,active: -93.6%
2,COc1ccccc1C(=O)Nc1ccnn1C1CCN(C/C=C/c2ccccc2)CC1,inconclusive: -44.8%
3,Cc1ccccc1Nc1ncnc2c1cnn2C,inactive: 0% and inactive: -21.9%
4,CC(Sc1ncc(C(F)(F)F)cc1Cl)C(=O)NC(N)=O (configuration not stated),inconclusive: -45.7%
5,CN(CCc1ccccc1)C(=O)c1ccc(NC(=O)Cc2ccc(NC(=O)C3CCCN(C(=O)C4CCC4)C3)cc2)cc1 (configuration not stated),active: -69.9%
6,COc1cccc(CNc2cc(C)ccn2)c1O,inactive: 18.1%
7,CC(=O)c1cccc(NC(=O)Nc2ccc3c(c2)N(C)C(=O)CS3)c1,inconclusive: -41.9%
8,COc1ccc(C2C(=O)N(CCc3ccccc3)CC(=O)N2C2CCCCC2)cc1 (configuration not stated),inconclusive: -48.9%
9,C=CCNCCCOc1ccc(Cl)cc1C(C)(C)C,inconclusive: -52.8%
10,COc1ccc(CCNCc2ccc(OC)c(OC)c2OC)cc1,inactive: -11.1%
11,COc1ccccc1C(CNC(=S)NCc1ccccc1)N1CCCC1 (configuration not stated),active: -71.6%
12,COc1ccc(CCN(C)C(=O)c2cc(S(=O)(=O)NCc3ccccc3)ccc2C)cc1OC,inconclusive: -44.1%
13,O=C(Nc1ccc(Cl)cc1)Nc1nnc(CSCc2ccccc2)s1,active: -70.2%
14,CCOc1ccc(-c2nnc(N3CCCCC3)c3ccccc23)cc1,inconclusive: -58.3%
15,COc1ccc(F)c(CN2CCC(n3nccc3NC(=O)CCCc3ccccc3)CC2)c1,inactive: 40.2%
16,COc1ccc(C)cc1NC(=O)c1nnn(Cc2cccc(C(F)(F)F)c2)c1N,inconclusive: -43.1%
17,Cn1nc(C(F)(F)F)c(/C=N/OC(=O)c2ccccc2Cl)c1SCc1ccccc1Cl,inconclusive: -42.7%
18,COc1cccc(-c2nnc(-c3ccccc3NC(=O)c3cccc(C(F)(F)F)c3)o2)c1,inactive: -12.5%
19,Cc1ccc(CN(C)C(=O)CSc2nnc3n2CCCCC3)c(C)c1,inconclusive: -50.5%
20,CCOc1ccc(NC(=O)c2cnn3c2NC(c2cccc(OC)c2)=CC3c2ccccc2)cc1 (configuration not stated),inconclusive: -51.3%
21,COc1ccc(CNC(=O)c2cccc(S(=O)(=O)N3CCN(C)CC3)c2)cc1,inconclusive: -42%

# From PubChem BioAssay AID1259415 (National Center for Advancing Translational Sciences (NCATS), 2018)
